Measured values as given in patent publication US20240150451A1.
No constants are given. Whether binding was seen depends on the method and setting. Some entries that bind do so weakly or less than the wild type.

Sequences of proteins named here, by UniProt entry; tags and fusion partners are left off. A change or cut given only in a name is not applied to a line headed by its entry. A line that says so, or that is headed by a name, gives the form on record, which may keep a tag or linker.
PHF-tau (paired helical filament tau; sarcosyl insoluble prep from human AD brain) (P10636, form named): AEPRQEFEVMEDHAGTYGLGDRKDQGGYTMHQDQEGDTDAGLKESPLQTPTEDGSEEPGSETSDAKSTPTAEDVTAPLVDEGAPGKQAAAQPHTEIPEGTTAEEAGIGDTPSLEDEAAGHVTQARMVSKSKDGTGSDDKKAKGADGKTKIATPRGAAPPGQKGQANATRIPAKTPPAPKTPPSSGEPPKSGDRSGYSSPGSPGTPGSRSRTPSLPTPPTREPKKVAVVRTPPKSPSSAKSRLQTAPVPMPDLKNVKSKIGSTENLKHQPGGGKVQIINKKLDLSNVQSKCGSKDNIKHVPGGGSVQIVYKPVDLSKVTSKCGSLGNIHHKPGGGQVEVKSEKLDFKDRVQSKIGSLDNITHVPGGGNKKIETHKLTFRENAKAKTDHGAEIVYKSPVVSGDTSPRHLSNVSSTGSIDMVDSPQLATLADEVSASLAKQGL
mouse tau (non-aggregated tau in WT mouse brain sections) (P10637, form named): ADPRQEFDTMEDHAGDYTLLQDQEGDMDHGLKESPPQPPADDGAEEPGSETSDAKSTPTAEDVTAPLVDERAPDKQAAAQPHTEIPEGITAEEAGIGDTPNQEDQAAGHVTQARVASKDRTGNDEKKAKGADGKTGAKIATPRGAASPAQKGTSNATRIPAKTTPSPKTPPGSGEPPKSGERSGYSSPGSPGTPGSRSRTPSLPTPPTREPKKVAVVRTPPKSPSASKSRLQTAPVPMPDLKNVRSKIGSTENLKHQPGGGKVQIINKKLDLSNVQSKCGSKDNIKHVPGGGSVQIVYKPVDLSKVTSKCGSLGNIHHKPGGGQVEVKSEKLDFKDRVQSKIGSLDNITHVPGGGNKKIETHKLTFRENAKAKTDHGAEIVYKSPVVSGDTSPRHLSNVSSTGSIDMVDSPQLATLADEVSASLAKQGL

How the values were obtained:
[1] = target: PHF-tau (paired helical filament tau; sarcosyl insoluble prep from human AD brain) (human) (UniProt P10636); assay: western blot strips of a human AD brain derived PHF sample (1-well gel)
[2] = target: PHF-tau (paired helical filament tau; sarcosyl insoluble prep from human AD brain) (human) (UniProt P10636); assay: western blot of a PHF prep from postmortem AD brain, antibody at 1 µg/mL
[3] = target: soluble tau in human brain (non-AD and AD brain cryosections) (human) (UniProt P10636); assay: immunohistochemistry on cryosections of AD and non-AD brain
[4] = target: PHF-tau (paired helical filament tau; sarcosyl insoluble prep from human AD brain) (human) (UniProt P10636); assay: direct ELISA, 25 ng/well coated PHF-tau, hybridoma screening
[5] = target: mouse tau (non-aggregated tau in WT mouse brain sections) (mouse) (UniProt P10637); assay: western blot of brain homogenate (20 µg total protein), antibody at 1 µg/mL
[6] = target: soluble tau in human brain (non-AD and AD brain cryosections) (human) (UniProt P10636); assay: western blot of human brain extract, antibody at 1 µg/mL
[7] = target: tau seeds from human AD brain (total homogenate of cryopreserved AD brain tissue) (human) (UniProt P10636); assay: immunodepletion of human AD brain homogenate with antibody and protein G beads; residual aggregates by hTau60/hTau60 MSD assay
[8] = target: PHF-tau (paired helical filament tau; sarcosyl insoluble prep from human AD brain) (human) (UniProt P10636); assay: immunohistochemistry on cryosections of AD brain (aggregated tau in situ)
[9] = target: mouse tau (non-aggregated tau in WT mouse brain sections) (mouse) (UniProt P10637); assay: immunohistochemistry on paraffin sections of WT mouse brain; no signal in Tau KO

Measured: binding

B1: PT66 monoclonal antibody (recombinant, mouse IgG2a/kappa) (antibody, V domains shown)
VH: QVQLQQPGAELVKPGASVKMSCKASGYTFTSYWITWVKQRPGQGLEWIGDIHPGRGSTKSNEKFKSKATLTVDTSSSTAYMQFSSLTSEDSAVYYCARRWGFDYWGQGTTLTVSS
VL: DIVITQDELSNPVTSGESVSISCRSSKSLLYKDGKTYLNWFLQRPGQSPQLLIYLMSTRASGVSDRFSGSGSGTDFTLEISRVKAEDVGVYYCQQLVDYPLTFGAGTKLELKR
binds: all assays above

B2: PT53 monoclonal antibody (recombinant, mouse IgG2a/kappa) (antibody, V domains shown)
VH: EVKLMESGGGLVQPGASLRLSCAASGFTFTDYYMSWVRQPPGKAPEWLALIRNKANGYTTKYAASVKGRFTISRDNSQNILYLQMNTLRAEDSATYYCVKAVWFAYWGQGTLVTVSA
VL: DIVITQDELSNPVTSGESVSISCRSSKSLLYKDGKTYLNWFLQRPGQSPQLLIYLMSTRASGVSDRFSGSGSGTDFTLEISRVKAEDVGVYYCLQLVEYPYTFGGGTKLEIKR
binds: [4]

B3: PT81 monoclonal antibody (recombinant, mouse IgG2a/kappa) (antibody, V domains shown)
VH: QVQLQQPGAELVRPGASVILSCKASGYTFTNSWIHWVKQRPGRVLEWIGRIDPNSGGTRYNENFKSKATLTVDKPSSTAYMQLSSLTSEDSAVYFCSRGVLHDYWGQGTTLTVSS
VL: DIVITQDELSNPVTSGESVSISCRSSKSLLYKDGKTYLNWFLQRPGQSPQLLIYLMSTRASGVSDRFSVSGSGTDFTLEISRVQAEDVGVYYCQQLVEYPYTFGGGTKLEIKR
binds: [4]

B4: hTau60 monoclonal antibody (recombinant, mouse IgG2a/kappa) (antibody, V domains shown)
VH: EVQLQQSGPELVKPGTSVKISCKVFGYTFTDYYMNWVKQSHGKSLEWIGDINPDNGETTYNQKFKGKATLTVDKSSSTAYMELRSLTSEDSAVYYCAKGATFVYWGQGTLVTVSA
VL: DVVMTQTPLSLPVSLGDQASISCISSQSLVHSTGTTFLHWFLQKPGQSPKLLIYKVSNRFSGVPDRFSGSGSGTDFTLKISRVEAEDLGFYFCSQSTYFPLTFGSGTKLEIKR
not listed: [1]
binds: all other assays above
